Assay results reported in US20240192195A1, “A MULTIOMIC APPROACH TO MODELING OF GENE REGULATORY NETWORKS IN MULTIPLE MYELOMA” (H. LEE MOFFITT CANCER CENTER AND RESEARCH INSTITUTE, INC., priority 2021, published 2024).
At least one read-out could not be matched to a standard name with certainty. At least one compound was matched to its structure with a doubt left.

Tested on: primary MM cells (CD138+ cells from MM patient bone marrow aspirates)
Experiment: EMMA ex vivo drug sensitivity / combination effect assay (live brightfield imaging, LD50 and AUC)

Compound	effect on LD50 of adding drug to the combination of Selinexor and Dexamethasone (primary MM cells ex vivo, FIG. 18)	ex vivo combination effect with proteasome inhibitors (PIs) (PI-resistant patients, functional validation ex vivo)
Daratumumab	significantly lowered the LDsos	
CCc1cnn2c(NCc3ccc[n+]([O-])c3)cc(N3CCCC[C@H]3CCO)nc12 [Dinaciclib]		synergy
